The record followed here is publication PMC5899830.

Protein sequences, listed by entry. Tags and fused reporters are not part of them. Lines headed by an entry give the natural chain unless they say otherwise; changes in a name come on top.
UniProt Q8IJW6: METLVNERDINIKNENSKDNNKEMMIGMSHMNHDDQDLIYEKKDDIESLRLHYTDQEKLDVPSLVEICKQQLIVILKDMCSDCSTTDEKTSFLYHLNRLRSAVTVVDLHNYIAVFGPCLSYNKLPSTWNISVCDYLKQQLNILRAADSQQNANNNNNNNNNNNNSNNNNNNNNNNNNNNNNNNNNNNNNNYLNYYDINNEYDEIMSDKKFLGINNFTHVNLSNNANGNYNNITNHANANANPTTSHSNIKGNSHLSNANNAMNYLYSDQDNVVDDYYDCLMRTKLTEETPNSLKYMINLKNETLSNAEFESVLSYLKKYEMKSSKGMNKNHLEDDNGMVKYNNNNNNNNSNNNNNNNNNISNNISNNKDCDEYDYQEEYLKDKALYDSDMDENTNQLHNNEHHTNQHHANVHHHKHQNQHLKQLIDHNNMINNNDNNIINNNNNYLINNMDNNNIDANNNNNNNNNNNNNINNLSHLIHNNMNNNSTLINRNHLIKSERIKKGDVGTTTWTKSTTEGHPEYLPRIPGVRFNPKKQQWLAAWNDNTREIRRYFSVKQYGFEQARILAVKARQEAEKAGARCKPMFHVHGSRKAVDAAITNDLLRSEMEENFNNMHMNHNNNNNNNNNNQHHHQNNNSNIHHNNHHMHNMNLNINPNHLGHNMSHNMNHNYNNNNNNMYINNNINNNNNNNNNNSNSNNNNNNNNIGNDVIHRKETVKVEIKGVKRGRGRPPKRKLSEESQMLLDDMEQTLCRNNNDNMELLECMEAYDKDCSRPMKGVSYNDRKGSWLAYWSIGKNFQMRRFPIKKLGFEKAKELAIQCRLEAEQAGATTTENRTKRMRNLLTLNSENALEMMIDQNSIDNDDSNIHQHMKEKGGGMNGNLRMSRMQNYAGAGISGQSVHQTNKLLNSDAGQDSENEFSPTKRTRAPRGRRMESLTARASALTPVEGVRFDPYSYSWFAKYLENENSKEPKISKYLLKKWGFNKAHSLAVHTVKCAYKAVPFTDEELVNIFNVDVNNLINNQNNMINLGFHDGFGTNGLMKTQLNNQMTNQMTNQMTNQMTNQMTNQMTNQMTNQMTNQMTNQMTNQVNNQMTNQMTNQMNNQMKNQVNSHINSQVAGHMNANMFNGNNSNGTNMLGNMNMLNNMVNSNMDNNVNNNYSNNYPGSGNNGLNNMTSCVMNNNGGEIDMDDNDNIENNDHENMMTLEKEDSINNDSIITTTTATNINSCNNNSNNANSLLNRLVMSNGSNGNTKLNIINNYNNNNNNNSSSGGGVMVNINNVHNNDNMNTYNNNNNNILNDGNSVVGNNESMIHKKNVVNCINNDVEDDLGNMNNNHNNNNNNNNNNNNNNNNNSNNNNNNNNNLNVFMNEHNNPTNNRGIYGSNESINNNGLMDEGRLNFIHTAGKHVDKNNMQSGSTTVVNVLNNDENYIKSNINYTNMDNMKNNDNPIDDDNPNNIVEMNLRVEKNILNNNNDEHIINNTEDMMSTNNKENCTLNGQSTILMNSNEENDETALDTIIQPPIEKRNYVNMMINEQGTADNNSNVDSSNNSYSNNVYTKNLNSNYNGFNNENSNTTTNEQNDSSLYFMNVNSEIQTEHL
UniProt Q8IJ72: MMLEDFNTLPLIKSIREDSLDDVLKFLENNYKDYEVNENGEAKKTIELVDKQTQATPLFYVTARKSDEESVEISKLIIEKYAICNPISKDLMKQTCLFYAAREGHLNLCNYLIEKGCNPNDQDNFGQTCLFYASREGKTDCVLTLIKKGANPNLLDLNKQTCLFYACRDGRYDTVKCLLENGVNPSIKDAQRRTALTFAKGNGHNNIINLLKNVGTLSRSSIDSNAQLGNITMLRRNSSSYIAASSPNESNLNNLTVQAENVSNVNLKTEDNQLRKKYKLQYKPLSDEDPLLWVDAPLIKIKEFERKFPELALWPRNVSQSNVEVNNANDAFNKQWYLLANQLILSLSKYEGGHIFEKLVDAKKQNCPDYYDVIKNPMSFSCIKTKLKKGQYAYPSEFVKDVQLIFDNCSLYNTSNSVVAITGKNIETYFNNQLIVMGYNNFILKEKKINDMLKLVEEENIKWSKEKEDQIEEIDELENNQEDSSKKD
UniProt Q8I5S4: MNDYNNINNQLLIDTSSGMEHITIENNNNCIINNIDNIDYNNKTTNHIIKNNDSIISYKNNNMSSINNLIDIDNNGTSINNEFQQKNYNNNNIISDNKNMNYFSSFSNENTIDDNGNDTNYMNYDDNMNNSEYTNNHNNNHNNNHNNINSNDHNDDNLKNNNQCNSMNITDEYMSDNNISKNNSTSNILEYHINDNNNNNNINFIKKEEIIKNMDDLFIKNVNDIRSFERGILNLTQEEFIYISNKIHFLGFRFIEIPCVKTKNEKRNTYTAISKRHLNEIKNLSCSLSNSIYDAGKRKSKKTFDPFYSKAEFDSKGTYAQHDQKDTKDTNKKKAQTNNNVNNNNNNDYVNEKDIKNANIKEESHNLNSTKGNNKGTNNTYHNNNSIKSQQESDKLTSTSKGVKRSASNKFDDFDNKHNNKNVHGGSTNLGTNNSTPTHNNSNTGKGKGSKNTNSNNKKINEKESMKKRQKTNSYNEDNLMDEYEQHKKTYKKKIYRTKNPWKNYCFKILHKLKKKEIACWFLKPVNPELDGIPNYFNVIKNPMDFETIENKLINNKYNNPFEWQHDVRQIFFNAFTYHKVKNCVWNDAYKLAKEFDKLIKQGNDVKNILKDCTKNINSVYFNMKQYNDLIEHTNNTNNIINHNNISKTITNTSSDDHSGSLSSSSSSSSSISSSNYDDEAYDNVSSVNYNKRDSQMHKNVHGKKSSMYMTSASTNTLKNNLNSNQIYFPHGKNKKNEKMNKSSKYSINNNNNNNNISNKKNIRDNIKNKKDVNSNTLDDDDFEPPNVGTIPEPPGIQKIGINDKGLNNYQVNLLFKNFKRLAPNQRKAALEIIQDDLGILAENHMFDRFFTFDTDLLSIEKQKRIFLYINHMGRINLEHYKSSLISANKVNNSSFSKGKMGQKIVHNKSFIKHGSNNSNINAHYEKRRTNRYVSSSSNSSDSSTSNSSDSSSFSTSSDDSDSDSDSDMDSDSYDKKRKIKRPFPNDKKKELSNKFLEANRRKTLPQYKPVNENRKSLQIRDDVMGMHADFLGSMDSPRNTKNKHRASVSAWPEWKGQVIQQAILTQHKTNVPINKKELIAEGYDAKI

These are yes or no findings as the source states them, for the method shown. Binding seen in cells or lysates may run through a third protein. A yes stands for co-enrichment or nearness to the bait. Other partners may have been found.

The target of the test is AP2-I (P. falciparum 3D7 (endogenous in nuclear extract)) (UniProt Q8IJW6). Description: affinity purification with mass spectrometry; DNA pull-down: biotinylated dsDNA probes (three different probes with de_novo_motif_028, …) on streptavidin Sepharose, incubated 1.5 h at 4°C with native nuclear protein extract of asynchronous P. falciparum 3D7 (150 mM NaCl, HEPES, 0.125% NP-40, tRNA, poly(dI:dC), poly(dA:dT)); same probes with scrambled motif as control; dimethyl labelling with label swap, quantitative tandem MS; the bait is DNA, proteins found enriched together.

As to “bromodomain protein 1 (from UniProt Q8IJ72)”, the binding result is “binds”.

For “bromodomain protein 2 (from UniProt Q8I5S4)”, the binding entry is given as “binds”.
